Laboratory results reported in US20150366949A1.
Results are given in words; binding and its absence hold for the method and conditions named. Some results given as binding are weak or reduced against the parent protein; the word gives no strength.

Protein sequences, listed by entry. Tags and fused reporters are not part of them. Residues count along the entry.
UniProt Q6P9K8, residues 476-609: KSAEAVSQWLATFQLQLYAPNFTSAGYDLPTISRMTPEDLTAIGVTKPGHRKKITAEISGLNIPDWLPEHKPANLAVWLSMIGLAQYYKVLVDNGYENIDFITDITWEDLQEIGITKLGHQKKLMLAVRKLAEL
UniProt Q8VHK1, residues 488-621: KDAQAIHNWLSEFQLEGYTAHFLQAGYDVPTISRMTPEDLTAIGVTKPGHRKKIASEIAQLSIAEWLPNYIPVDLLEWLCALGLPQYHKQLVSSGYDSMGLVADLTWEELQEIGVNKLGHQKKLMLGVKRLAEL

Columns and labels:
mLAR (mouse) = molecular target: T1, mLAR (mouse) (UniProt A2A8L5); test: yeast two hybrid interaction system
T1 sequence (looked up): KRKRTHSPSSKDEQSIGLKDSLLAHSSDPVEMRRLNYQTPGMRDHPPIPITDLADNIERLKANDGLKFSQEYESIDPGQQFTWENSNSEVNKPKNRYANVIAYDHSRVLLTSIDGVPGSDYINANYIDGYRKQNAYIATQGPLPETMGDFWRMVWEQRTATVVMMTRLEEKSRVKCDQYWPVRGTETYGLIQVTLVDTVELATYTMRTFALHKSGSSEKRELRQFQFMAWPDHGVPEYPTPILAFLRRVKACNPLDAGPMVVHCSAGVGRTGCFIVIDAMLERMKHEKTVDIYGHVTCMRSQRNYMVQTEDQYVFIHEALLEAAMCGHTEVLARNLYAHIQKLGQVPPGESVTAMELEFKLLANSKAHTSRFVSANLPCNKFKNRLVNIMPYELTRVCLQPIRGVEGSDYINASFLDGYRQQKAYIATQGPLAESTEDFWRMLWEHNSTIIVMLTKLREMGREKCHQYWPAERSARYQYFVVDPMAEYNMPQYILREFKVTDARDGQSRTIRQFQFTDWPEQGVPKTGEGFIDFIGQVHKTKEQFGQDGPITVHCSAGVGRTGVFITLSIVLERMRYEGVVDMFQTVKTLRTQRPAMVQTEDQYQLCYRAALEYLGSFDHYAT

mPTPσ (mouse) = molecular target: T2, mPTPσ (mouse) (UniProt B0V2N1); test: yeast two hybrid interaction system
T2 sequence (looked up): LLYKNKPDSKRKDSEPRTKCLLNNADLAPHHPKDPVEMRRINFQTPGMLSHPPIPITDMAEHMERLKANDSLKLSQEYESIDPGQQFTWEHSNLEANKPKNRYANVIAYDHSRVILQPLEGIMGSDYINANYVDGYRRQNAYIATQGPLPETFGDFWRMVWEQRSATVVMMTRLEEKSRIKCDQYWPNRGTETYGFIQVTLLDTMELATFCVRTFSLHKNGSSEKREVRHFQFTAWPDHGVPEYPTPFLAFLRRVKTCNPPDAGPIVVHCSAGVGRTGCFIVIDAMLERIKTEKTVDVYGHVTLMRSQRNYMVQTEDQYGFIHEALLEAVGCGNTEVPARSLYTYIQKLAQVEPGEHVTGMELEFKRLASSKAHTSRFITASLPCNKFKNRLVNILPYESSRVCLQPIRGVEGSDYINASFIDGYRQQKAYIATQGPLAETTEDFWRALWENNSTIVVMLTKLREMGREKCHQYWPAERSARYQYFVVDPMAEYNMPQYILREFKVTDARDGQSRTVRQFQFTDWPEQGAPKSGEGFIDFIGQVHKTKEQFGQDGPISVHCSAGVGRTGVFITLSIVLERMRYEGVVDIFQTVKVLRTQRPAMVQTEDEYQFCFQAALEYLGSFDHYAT

binding (mLAR (mouse)) | binding (mPTPσ (mouse)) | Substance
binds |  | mCkn1 (from UniProt Q6P9K8 476-609)
binds | binds | mCkn2 (from UniProt Q8VHK1 488-621)
